Experimental data published in paper PMC7819943, “Rice protein-binding microarrays: a tool to detect cis-acting elements near promoter regions in rice”.
The list shows a part of the results.

By UniProt entry, the sequences of proteins in these tests, tags left out.
UniProt Q0JBA9, entry or part of it: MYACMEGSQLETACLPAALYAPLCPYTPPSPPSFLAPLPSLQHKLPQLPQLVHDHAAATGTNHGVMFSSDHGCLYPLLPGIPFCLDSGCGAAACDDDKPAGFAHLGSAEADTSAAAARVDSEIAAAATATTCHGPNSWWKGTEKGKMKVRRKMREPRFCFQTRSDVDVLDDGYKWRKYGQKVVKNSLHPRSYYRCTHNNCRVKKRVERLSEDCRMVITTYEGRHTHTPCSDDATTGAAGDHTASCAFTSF

target: OsWRKY34 (Oryza sativa, UniProt Q0JBA9 1-250); experiment: protein-binding microarray (RPBM); PBS, 2% BSA, 51.3 ng/ul salmon testes DNA, 50 uM zinc acetate, 200 nM TF, 25 C, 1 h; high values mean tight binding; conditions: protein: recombinant; tags: N-terminal polyhistidine and DsRed monomer fusion (pET32a); label: CyDye5-dUTP incorporated in the synthesized complementary strand; 3' TTTTT single-stranded linker to array surface; dsDNA, one strand shown
How it was run: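 In PBS with 2% BSA, salmon testes DNA and 50 µM zinc acetate, 200 nM protein was incubated on a custom Agilent array at 25 °C for 1 h and then washed off. The array had been made double-stranded by primer extension with Cy5-dUTP and blocked with 2% BSA. The proteins were transcription factors fused N-terminally to polyhistidine and DsRed, expressed in E. coli BL21-CodonPlus and purified on Ni–NTA. The binding signal is per-feature fluorescence intensity (arbitrary units) from an Axon 4000B scanner.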

Sequence	binding signal
CATTTTTCTTCGATCGTGACATGCCGGGCCAGCCCACCGTCGGAGTCACCTAGTGCAG	8390 fluorescence intensity (a.u.)
TTGTTTGATCATTCCCTTTCAGCTTTGATTTTCCTGGTATCGGAGTCACCTAGTGCAG	8210 fluorescence intensity (a.u.)
CCTCCAGATGTTGGGGCGGCGACGGTGTTTGTTGGGGTGGCGGAGTCACCTAGTGCAG	11600 fluorescence intensity (a.u.)
AGTGTGTTGATCTCTTAGTTTTTTTCTGTTATTGTTTTACCGGAGTCACCTAGTGCAG	8550 fluorescence intensity (a.u.)
AAGGCTAGTTATTGTTGTGAATGCATTTTCTTGGGCATCTCGGAGTCACCTAGTGCAG	11800 fluorescence intensity (a.u.)
TCTCGTTTTGCTCTTCTGTTTCGCTCGCTCTCCTCTCCCTCGGAGTCACCTAGTGCAG	12900 fluorescence intensity (a.u.)
GTTTCTGTAGCCGGTACTATCAAATGACCCAATTTCTGACCGGAGTCACCTAGTGCAG	9440 fluorescence intensity (a.u.)
TAGTTTTTTACATATGTATAATTTTTATACTTACGTATACCGGAGTCACCTAGTGCAG	8420 fluorescence intensity (a.u.)
GGTGCGGGGTGGCGGTGCTCGGCCACAGCGGCGCGCGGGGCGGAGTCACCTAGTGCAG	8130 fluorescence intensity (a.u.)
CTCCCGCGAGTCCGCCACCGCAACCACCTCGCCTCGCCCACGGAGTCACCTAGTGCAG	8990 fluorescence intensity (a.u.)
CCGTGTTGTCGTTCCTCCAAATTTGTACCGTTTTCCCTCTCGGAGTCACCTAGTGCAG	8770 fluorescence intensity (a.u.)
CCGTCCCCACGTCGCCCACGAACCGCCTTTGCCGCTCGCTCGGAGTCACCTAGTGCAG	8690 fluorescence intensity (a.u.)
CCCGAGCCGAAACCGCCTCCGCCTATTCGCGCCACCCACACGGAGTCACCTAGTGCAG	8210 fluorescence intensity (a.u.)
ACCAATTACACAGTTCACCAGGAAGTTGCGAAACGAATCTCGGAGTCACCTAGTGCAG	8250 fluorescence intensity (a.u.)
TGGGGTGGTTTTTCCGATGCAGGCTGGGTTGGTTGCCTAGCGGAGTCACCTAGTGCAG	8300 fluorescence intensity (a.u.)
TGTGTTGGGTAATTCGGTTTAGGTACAATAATCTGCCATTCGGAGTCACCTAGTGCAG	9600 fluorescence intensity (a.u.)
AAACGGCCATTCCTGTGTTTTTCCTGTGTTTTGTAATCCTCGGAGTCACCTAGTGCAG	12800 fluorescence intensity (a.u.)
ATCAATTTGTTTTAGTTTTAATATTCATATTTCATCTTATCGGAGTCACCTAGTGCAG	8160 fluorescence intensity (a.u.)
TATCTACTAATTTAACTTATAAATGGGTTTATGGGTTGACCGGAGTCACCTAGTGCAG	8600 fluorescence intensity (a.u.)
GCAGCTCAGCCTCAGTGCAACCCACTCGCTCTCTCTCACTCGGAGTCACCTAGTGCAG	8500 fluorescence intensity (a.u.)
CGTCTGCTCCACCATCCACCACCACCACGCTACGCTTTCCCGGAGTCACCTAGTGCAG	10900 fluorescence intensity (a.u.)

Sequence	binding signal
GGCCAGTTATCATCCTACAATAATATTGTTTGGTCCACATCGGAGTCACCTAGTGCAG	8160 fluorescence intensity (a.u.)
TCGCTACTTACACTCTCCTTCCATCTCCATATATCAAATTCGGAGTCACCTAGTGCAG	11000 fluorescence intensity (a.u.)
TTTAGCACGTATTTGACCGTTCGTCTTATTCAAAAACTTTCGGAGTCACCTAGTGCAG	8790 fluorescence intensity (a.u.)
CGTCAATCTTGTGTTTCTTTCATTCCATTGTACTTACAATCGGAGTCACCTAGTGCAG	9270 fluorescence intensity (a.u.)
TGGTTCCCATTGTGTGCGTTAACTTGCTGAGATATGGTGACGGAGTCACCTAGTGCAG	9830 fluorescence intensity (a.u.)
TCCCTCTGTTCAAAATGTTTGACACCGTTGACTTTTTAAGCGGAGTCACCTAGTGCAG	20700 fluorescence intensity (a.u.)
CATGTGGCACTAGCTTCTCTACCGCCTATGTTGTTGTCTGCGGAGTCACCTAGTGCAG	13700 fluorescence intensity (a.u.)
AAGTACGAGTTCATCCCCAATCCTCCAATCCTTCGGTTCCCGGAGTCACCTAGTGCAG	8350 fluorescence intensity (a.u.)
CTCCTGCGCTCGCCTCCTCGCCCAATTCCGTCCCCAATTCCGGAGTCACCTAGTGCAG	9570 fluorescence intensity (a.u.)
CTTCTCTTCTTCCTTGTTCGTTCATCCCCTAACCCTTTCTCGGAGTCACCTAGTGCAG	9270 fluorescence intensity (a.u.)
TATTTATTTATTTATTTATTTACTAGTAATATAATATATACGGAGTCACCTAGTGCAG	8080 fluorescence intensity (a.u.)
ACTCCCTTTCCATCAGACACATTTCACCATTAAGTTTCTTCGGAGTCACCTAGTGCAG	12100 fluorescence intensity (a.u.)
ATTATCCTTAAGTCTTGCGGCACCCAGTTCTTTTGTTCTTCGGAGTCACCTAGTGCAG	11000 fluorescence intensity (a.u.)
GCCATCTGCCACCGCTTTTCACCTTTTTCTCGCCTACAAACGGAGTCACCTAGTGCAG	9680 fluorescence intensity (a.u.)
CGTTGACTTTTTTAAATATATTTAGCAGTTCGTCTTATTACGGAGTCACCTAGTGCAG	16500 fluorescence intensity (a.u.)
TGTCATATTCCTGCACCTGCAGTTGTTGCGTGTTCATAACCGGAGTCACCTAGTGCAG	9700 fluorescence intensity (a.u.)
GTGGAGGTCGGGGTCGGGGAGGATGAGGAGGAGGGTGTGGCGGAGTCACCTAGTGCAG	10100 fluorescence intensity (a.u.)
TAGATTAATTATGCATCCTCCGTTCCTCCAGCCGATCGATCGGAGTCACCTAGTGCAG	8190 fluorescence intensity (a.u.)
GTTTTTAATTTCGATAATATTTGATTCTGTTTTCGTGTCCCGGAGTCACCTAGTGCAG	8930 fluorescence intensity (a.u.)
ATACAATTCTCACTGCCACCTTATTGCTAGCTGCTACAAACGGAGTCACCTAGTGCAG	12700 fluorescence intensity (a.u.)
CTAACTCTCCAGCTCTATTTATCAATGTCGATTTCTTACTCGGAGTCACCTAGTGCAG	10500 fluorescence intensity (a.u.)

Reformatted: results already given
Sequence,binding signal
GCAGCTCAGCCTCAGTGCAACCCACTCGCTCTCTCTCACTCGGAGTCACCTAGTGCAG,8500 fluorescence intensity (a.u.)
TCGCTACTTACACTCTCCTTCCATCTCCATATATCAAATTCGGAGTCACCTAGTGCAG,11000 fluorescence intensity (a.u.)
